Measured values as given in patent US10766855B2, “Hydroxamate triterpenoid derivatives” (VIVACELL BIOTECHNOLOGY ESPANA S.L., priority 2016, dated 2020).
At least one structure is not confirmed: it was looked up by name or label, or the drawing left a doubt.

Columns and labels:
[1] = system: HIF-1α; assay: HIF-1α transactivation assay in NIH-3T3-EPO-Luc fibroblast cells; assay type: cell-based
Description: To investigate the biological activities of the different compounds, HIF-1α transactivation assays were performed either in NIH-3T3-EPO-Luc cells (Table II) or in HaCaT-EPO-luc cells (FIG. 2). The NIH3T3-EPO-luc and HaCaT-EPO-luc cells have been stably transfected with the plasmid Epo-Luc plasmid. The EPO-Hypoxia Response Element (HRE)-luciferase reporter plasmid contains three copies of the HRE consensus sequence from the promoter of the erythropoietin gene fused to the luciferase gene. NIH3T3-EPO-luc cells were maintained at 37° C. in a humidified atmosphere containing 5% CO2 in DMEM supplemented with 10% fetal calf serum (FBS), and 1% (v/v) penicillin/streptomycin. DFX was purchased from Sigma-Aldrich (USA). Cells (1×10^4/well in 96 well plates) were seeded the day before the assay. […] After six hours of stimulation the cells were lysed in 25 mM Tris-phosphate pH 7.8, 8 mM MgCl2, 1 mM DTT, 1% Triton X-100, and 7% glycerol during 15 min at RT in a horizontal shaker. Luciferase activity is measured using a microplate luminometer (Berthold) following the instructions of the luciferase assay kit (Promega, Madison, Wis., USA).

[2] = system: Erythropoietin (EPO); assay: Plasma erythropoietin (EPO) levels in mice (ELISA); assay type: in vivo, mouse; details: C57BL/6 male mice, i.p., 4 hours after treatment; compound VII 30 and 60 mg/kg, Betulinic acid 60 mg/kg
Description: EPO in plasma measured using a mouse EPO ELISA kit in C57BL/6 male mice administered with compound VII (30 mg/kg or 60 mg/kg) or betulinic acid (BA) (60 mg/kg) intraperitoneally. […] Data are expressed as mean±SEM (n=3).
Erythropoietin (EPO) is one of the earliest described and most sensitive HIF target genes; being positively regulated at the transcription level. Here, the ability of compound VII to regulated EPO levels in vivo was examined. Sixteen-week-old C57BL/6 male mice were treated intraperitoneally (i.p.) with Betulinic Acid (60 mg/kg) or compound VII (30 mg/kg or 60 mg/kg). Blood samples were taken under general anaesthesia 4 hours after treatment and the circulating levels of EPO in plasma were quantified using a mouse EPO ELISA kit (R&D Systems) according to manufacturer's instructions. EPO values represent the mean±SEM (n=3).

## C=C(C)[C@@H]1CC[C@]2(C(=O)O)CC[C@]3(C)[C@H](CC[C@@H]4[C@@]5(C)CC[C@H](O)C(C)(C)[C@@H]5CC[C@]43C)[C@@H]12 [Betulinic acid, reference compound]
[1]
  activation of the EPO promoter as a surrogate marker of HIF-1α pathway activation (in words): None of the natural triterpenoids
[2]
  circulating EPO plasma levels: did not influence the levels of EPO in plasma
